{"source": "patent US20070042339A1", "about": "“Preservation of biomaterials with transported preservation agents” (priority 2003, published 2007)", "key": {"[1]": {"test_system": "hepatocytes", "experiment": "MTT assay after sugar loading (Example 2)", "format": "cell-based, rat", "conditions": "200 mM sugar, 60 min at 37° C."}, "[2]": {"test_system": "hepatocytes", "format": "cell-based, rat", "conditions": "200 mM sugar loading 60 min, frozen in HTS with 200 mM sugar, liquid nitrogen 1-7 days", "procedure": "HTS without sugar supplement was used for control samples. […] Following storage, samples were rapidly thawed in 37° C. H2O for 2 min with gentle agitation."}}, "note": "Some results were stated once for a whole list of compounds, not compound by compound."}
{"smiles": "OC[C@H]1OC(O)C[C@@H](O)[C@@H]1O", "note": "(mixture of isomers) [2DG, 2-deoxy-D-glucose]", "values": [{"measurement": "metabolic activity of hepatocytes (MTT), of no-sugar control", "setting": "[1]", "value": "80-90%"}]}
{"smiles": "O=C[C@H](O)[C@@H](O)[C@H](O)[C@H](O)CO", "note": "[D-glucose]", "values": [{"measurement": "metabolic activity of hepatocytes (MTT), of no-sugar control", "setting": "[1]", "value": "80-90%"}]}
{"smiles": "OC[C@H]1O[C@@](CO)(O[C@H]2O[C@H](CO)[C@@H](O)[C@H](O)[C@H]2O)[C@@H](O)[C@@H]1O", "note": "[sucrose]", "values": [{"measurement": "post-thaw viability, percent of non-frozen samples", "setting": "[2]", "value": "< 10", "unit": "%"}]}
